Assay results: patent US20050260613A1 (priority 2003, published 2005)
At least one compound was matched to its structure with a doubt left.

Key:
AD patients [1] = settings: compared to placebo treatment; cited from earlier work
AD patients [2] = settings: patients with zero, one or two copies of the ApoE4 allele; cited from earlier work
[3] = tested on: Caucasian patients diagnosed with Alzheimer's Disease; assay: Clinical association of LRPAP1 haplotype copy number with response to galantamine (ΔADAS-cog, logistic regression); format: in vivo, human; settings: patients with two copies of haplotype (5) compared with zero copies or one copy

SMILES: COc1ccc2c3c1O[C@H]1C[C@@H](O)C=C[C@@]31CCN(C)C2 [galantamine]
- efficacy in cognitive function and activities of daily living (AD patients [1]): significant improvement
- efficacy of response by ApoE4 allele (AD patients [2]): no significant difference
- response to galantamine (change in ADAS-cog) [3]: better response
